# Measured values reported in the supplement of paper PMC12067093, “Discovery and optimisation of a covalent ligand for TRIM25 and its application to targeted protein ubiquitination” (Chemical Science, 2025).
# Sequences of proteins named here, by UniProt entry; tags and fusion partners are left off. A change or cut given only in a name is not applied to a line headed by its entry.
# UniProt Q96KP1: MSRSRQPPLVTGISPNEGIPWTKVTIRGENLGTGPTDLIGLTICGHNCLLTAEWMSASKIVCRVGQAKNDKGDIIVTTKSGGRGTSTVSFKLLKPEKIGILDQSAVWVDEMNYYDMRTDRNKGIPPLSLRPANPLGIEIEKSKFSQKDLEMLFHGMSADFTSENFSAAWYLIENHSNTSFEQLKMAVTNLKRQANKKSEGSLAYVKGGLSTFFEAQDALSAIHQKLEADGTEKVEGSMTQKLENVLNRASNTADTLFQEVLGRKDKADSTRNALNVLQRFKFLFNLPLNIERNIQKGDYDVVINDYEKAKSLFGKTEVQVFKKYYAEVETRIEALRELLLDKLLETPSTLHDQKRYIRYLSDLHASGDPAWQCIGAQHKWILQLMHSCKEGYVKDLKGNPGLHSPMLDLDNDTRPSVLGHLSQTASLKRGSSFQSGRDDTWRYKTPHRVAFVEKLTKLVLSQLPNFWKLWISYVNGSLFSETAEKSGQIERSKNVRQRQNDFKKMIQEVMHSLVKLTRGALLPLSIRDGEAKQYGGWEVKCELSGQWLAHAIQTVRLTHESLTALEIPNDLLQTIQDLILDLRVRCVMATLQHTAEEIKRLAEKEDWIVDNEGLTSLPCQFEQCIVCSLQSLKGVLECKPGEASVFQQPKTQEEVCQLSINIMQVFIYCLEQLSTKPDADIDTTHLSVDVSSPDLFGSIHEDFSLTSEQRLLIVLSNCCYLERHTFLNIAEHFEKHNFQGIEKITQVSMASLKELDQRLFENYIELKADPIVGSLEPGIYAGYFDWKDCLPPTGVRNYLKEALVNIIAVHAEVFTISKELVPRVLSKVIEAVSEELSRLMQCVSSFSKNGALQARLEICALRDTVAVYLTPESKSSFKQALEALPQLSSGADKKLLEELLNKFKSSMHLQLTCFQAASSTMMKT
# UniProt Q9BSJ8: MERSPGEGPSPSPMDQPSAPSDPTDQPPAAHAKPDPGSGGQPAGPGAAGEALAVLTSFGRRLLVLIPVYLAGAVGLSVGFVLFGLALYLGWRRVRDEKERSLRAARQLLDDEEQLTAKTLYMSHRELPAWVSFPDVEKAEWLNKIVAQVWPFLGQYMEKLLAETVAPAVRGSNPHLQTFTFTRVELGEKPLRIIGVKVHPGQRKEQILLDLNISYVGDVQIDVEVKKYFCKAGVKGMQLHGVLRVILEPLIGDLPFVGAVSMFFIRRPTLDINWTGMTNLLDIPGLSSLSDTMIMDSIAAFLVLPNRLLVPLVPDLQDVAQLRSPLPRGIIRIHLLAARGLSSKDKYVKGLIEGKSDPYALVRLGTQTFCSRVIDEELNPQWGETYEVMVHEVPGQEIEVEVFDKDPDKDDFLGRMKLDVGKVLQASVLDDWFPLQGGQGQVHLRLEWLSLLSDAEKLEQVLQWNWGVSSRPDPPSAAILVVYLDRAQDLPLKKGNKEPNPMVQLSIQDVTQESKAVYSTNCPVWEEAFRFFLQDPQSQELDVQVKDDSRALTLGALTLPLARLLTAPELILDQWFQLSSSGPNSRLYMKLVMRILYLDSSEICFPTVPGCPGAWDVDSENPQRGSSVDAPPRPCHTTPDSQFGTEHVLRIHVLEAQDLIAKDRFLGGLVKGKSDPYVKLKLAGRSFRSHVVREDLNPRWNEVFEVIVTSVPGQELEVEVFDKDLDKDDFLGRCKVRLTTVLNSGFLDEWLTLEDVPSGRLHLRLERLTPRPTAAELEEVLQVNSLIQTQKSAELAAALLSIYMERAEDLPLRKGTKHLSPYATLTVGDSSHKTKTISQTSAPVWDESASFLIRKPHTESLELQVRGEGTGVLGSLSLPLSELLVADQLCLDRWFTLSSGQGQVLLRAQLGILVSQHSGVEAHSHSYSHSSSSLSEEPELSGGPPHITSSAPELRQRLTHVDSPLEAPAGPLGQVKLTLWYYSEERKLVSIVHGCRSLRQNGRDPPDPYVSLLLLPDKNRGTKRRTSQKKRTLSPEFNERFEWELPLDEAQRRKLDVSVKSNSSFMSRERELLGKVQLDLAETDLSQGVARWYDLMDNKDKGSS
# UniProt Q96TA1: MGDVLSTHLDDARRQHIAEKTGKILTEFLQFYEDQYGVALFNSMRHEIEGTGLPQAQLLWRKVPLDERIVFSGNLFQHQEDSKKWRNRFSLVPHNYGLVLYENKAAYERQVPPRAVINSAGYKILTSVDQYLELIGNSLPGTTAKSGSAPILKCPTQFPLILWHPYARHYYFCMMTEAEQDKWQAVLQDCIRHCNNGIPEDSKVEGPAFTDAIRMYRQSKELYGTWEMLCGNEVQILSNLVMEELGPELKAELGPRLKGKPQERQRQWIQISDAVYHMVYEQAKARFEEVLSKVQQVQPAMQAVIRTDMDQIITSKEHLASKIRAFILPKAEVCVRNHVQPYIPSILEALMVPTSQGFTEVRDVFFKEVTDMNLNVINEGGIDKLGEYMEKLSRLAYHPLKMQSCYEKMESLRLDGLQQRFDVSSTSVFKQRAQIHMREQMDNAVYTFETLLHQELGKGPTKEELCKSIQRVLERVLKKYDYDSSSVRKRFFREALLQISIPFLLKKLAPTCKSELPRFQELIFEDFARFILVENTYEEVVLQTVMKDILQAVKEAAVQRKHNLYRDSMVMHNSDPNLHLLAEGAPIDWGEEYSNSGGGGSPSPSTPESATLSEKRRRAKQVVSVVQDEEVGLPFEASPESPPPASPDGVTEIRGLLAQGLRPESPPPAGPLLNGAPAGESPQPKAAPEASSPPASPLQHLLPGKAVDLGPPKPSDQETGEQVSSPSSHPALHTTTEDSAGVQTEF
# UniProt A0FGR8: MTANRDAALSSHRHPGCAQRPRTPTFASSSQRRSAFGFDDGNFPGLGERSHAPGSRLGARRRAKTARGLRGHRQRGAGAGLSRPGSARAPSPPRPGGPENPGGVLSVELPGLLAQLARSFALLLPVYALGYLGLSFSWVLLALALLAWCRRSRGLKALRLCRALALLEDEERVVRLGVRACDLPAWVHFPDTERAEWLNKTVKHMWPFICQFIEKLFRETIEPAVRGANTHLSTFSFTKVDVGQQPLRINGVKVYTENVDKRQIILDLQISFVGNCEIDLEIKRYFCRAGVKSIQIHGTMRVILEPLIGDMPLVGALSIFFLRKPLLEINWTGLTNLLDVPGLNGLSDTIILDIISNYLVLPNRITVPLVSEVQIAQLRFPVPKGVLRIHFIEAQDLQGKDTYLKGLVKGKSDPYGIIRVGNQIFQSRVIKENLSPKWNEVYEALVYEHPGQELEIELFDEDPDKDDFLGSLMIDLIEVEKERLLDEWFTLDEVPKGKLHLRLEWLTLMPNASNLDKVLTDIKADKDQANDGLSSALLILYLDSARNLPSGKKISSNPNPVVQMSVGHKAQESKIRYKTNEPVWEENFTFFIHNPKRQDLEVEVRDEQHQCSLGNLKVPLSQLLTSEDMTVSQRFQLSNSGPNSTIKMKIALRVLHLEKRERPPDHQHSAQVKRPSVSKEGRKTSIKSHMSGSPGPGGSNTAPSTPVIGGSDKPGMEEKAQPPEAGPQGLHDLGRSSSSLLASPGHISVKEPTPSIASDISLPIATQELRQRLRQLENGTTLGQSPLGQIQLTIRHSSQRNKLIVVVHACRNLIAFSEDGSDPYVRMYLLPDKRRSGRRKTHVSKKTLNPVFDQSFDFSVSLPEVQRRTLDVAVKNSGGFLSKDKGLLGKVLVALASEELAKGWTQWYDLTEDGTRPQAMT
# UniProt Q56NI9: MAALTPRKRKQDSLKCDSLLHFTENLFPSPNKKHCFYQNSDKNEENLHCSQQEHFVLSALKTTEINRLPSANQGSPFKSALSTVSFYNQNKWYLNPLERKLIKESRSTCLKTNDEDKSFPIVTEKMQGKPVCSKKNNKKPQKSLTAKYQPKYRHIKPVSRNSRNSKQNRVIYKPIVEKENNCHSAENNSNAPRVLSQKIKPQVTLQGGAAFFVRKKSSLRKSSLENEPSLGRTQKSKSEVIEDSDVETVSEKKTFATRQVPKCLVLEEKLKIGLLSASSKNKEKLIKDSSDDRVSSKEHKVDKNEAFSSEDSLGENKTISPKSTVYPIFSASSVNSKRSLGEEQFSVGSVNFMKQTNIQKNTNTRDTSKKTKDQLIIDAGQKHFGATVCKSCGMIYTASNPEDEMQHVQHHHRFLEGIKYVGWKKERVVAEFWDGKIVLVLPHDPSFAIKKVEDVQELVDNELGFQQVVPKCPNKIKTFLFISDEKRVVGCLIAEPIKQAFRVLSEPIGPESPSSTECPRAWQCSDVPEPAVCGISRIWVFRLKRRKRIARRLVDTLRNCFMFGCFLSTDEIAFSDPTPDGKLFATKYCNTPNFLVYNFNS
# UniProt P16930: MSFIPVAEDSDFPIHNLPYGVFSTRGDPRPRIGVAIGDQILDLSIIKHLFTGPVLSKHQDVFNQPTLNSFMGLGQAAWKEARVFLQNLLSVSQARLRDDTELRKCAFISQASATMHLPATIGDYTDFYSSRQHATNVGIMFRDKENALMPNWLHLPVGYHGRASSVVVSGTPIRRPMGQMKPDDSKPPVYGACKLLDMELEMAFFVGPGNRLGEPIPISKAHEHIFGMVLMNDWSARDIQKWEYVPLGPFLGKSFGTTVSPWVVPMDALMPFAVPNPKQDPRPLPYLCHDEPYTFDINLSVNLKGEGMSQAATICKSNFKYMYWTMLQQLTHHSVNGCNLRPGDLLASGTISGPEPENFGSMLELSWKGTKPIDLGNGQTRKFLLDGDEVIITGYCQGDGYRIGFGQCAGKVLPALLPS
# UniProt Q13868, whole entry, looked up: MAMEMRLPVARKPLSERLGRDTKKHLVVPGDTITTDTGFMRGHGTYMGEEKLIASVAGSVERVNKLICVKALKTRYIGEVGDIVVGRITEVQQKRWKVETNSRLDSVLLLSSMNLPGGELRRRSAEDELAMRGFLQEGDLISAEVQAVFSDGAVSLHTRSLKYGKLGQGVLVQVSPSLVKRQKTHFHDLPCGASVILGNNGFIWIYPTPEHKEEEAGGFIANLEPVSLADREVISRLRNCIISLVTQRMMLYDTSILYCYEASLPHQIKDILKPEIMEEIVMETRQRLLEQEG
# UniProt Q01469, whole entry, looked up: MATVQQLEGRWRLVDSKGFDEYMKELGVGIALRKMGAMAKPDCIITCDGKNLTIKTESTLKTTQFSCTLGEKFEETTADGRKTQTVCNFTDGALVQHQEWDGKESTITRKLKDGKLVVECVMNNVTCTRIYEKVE
# UniProt Q9BYI3: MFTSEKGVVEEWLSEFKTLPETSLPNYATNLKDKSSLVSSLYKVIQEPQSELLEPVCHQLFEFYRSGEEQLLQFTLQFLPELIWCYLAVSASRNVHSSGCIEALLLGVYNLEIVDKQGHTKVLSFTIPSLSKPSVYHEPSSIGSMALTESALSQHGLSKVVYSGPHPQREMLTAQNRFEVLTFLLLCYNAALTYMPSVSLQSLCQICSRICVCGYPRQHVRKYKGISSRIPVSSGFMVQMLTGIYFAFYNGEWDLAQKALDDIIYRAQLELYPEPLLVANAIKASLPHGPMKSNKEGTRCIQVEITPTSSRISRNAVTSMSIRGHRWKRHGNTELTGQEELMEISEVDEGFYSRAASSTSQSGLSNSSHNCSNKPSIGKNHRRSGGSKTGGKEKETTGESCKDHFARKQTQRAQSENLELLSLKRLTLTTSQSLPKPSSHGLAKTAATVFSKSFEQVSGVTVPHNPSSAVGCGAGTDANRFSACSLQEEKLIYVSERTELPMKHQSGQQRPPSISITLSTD
# UniProt Q7Z2K6: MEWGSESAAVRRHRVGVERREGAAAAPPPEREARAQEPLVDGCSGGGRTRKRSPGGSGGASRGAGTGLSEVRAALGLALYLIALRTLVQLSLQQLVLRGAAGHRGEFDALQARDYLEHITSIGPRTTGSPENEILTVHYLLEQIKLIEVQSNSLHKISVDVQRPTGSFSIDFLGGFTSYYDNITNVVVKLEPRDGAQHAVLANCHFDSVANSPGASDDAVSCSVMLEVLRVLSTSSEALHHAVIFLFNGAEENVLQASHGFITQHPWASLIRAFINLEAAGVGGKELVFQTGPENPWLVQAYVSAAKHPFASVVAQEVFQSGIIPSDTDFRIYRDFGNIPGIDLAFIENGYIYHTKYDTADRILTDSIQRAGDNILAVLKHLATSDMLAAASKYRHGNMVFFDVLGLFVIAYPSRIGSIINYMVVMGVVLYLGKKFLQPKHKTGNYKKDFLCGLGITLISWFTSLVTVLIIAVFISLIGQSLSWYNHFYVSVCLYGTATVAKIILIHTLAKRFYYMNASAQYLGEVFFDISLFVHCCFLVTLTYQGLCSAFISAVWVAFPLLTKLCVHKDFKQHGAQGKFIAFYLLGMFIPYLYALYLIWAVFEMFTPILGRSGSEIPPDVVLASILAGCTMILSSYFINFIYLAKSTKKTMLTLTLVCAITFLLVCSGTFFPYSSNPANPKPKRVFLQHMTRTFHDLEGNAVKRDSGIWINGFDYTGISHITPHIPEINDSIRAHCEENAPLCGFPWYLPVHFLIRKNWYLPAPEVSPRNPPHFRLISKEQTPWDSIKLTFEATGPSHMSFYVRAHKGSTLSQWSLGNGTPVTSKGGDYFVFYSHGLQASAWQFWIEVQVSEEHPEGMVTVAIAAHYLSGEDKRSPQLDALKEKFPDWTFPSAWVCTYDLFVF
# Some of the results follow.
# Compound: Cc1cc(ccc1-c1ccccc1)C(=O)N1CCCN(CC1)C(=O)CCl [compound 10]
# Assay: probe-labelled cysteine peptide fold change vs DMSO (competition) (log2 fold change); higher = less target engagement (more negative = stronger competition)
# Settings: THP-1, incubation time: 4 h
# 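Further: competitive profiling in live THP-1 cells: cysteine peptides tagged with an iodoacetamide desthiobiotin (IA-DTB) probe, intensity after compound treatment relative to DMSO-treated cells.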
Target,probe-labelled cysteine peptide fold change (10 µM),probe-labelled cysteine peptide fold change (50 µM)
ETFDH_Q16134_266_ANCEPQTYGIGLK (UniProt Q16134),0.0188,0.134
ESCO1_Q5FWF5_160_EQCSSTQSK (UniProt Q5FWF5),0.0524,-0.229
EXOC2_Q96KP1_388_WILQLMHSCK (UniProt Q96KP1),-0.223,0.36
ESYT1_Q9BSJ8_522_AVYSTNCPVWEEAFR (UniProt Q9BSJ8),0.00976,0.117
FAM129B_Q96TA1_334_AEVCVR (UniProt Q96TA1),-0.16,-0.155
ESYT2_A0FGR8_210_HMWPFICQFIEK (UniProt A0FGR8),-0.171,0.379
ESCO2_Q56NI9_182_ENNCHSAENNSNAPR (UniProt Q56NI9),0.25,0.479
EXOC8_Q8IYI6_211_VHGFLMNDCLLVATWLPQR (UniProt Q8IYI6),-0.132,0.0731
FAH_P16930_396_KFLLDGDEVIITGYCQGDGYR (UniProt P16930),0.0254,-0.303
FAM129A_Q9BZQ8_891_IHECQWVVEDAPNPDVLLSHK (UniProt Q9BZQ8),-0.215,-0.218
EXOSC2_Q13868_259_MMLYDTSILYCYEASLPHQIK (UniProt Q13868),0.341,0.254
FABP5_Q01469_43_MGAMAKPDCIITCDGK (UniProt Q01469),-0.103,-0.36
FAM126A_Q9BYI3_300_CIQVEITPTSSR (UniProt Q9BYI3),0.144,-0.281
ERMP1_Q7Z2K6_737_AHCEENAPLCGFPWYLPVHFLIR (UniProt Q7Z2K6),-0.0124,0.222

# Already shown: entries from further up.
Target,probe-labelled cysteine peptide fold change (10 µM),probe-labelled cysteine peptide fold change (50 µM)
ESYT1_Q9BSJ8_522_AVYSTNCPVWEEAFR (UniProt Q9BSJ8),0.00976,0.117
FAM129B_Q96TA1_334_AEVCVR (UniProt Q96TA1),-0.16,-0.155
